Structures are written as SMILES. Values joined by “and” are separate entries in the source; they are usually repeats but may differ in a detail not shown here. Equal values may be shown once. Some of the results follow. The main result of the screen is listed elsewhere. These columns were measured beside it and carry no call. Compounds called inactive in the main read-out are mostly missing here. Words in brackets tell the shape of the fitted curve; partial curves, single points and poor fits give uncertain potencies.

A short description of this experiment: qHTS Assay for Inhibitors of PDE-IV (AID 607). Particulars: HEK293 ACTOne CNG channel cells, membrane potential fluorescence; measured here: parental cell counter-screen. In outline: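 Cell-based read-out of cAMP via a modified cyclic nucleotide-gated channel and membrane potential dye (535/590 nm) in HEK293 cells expressing PDE4 endogenously. Compounds tested up to 22.9 uM final; 100 uM RO 20-1724 reference.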
On to `COc1ccccc1CNc1nc(-c2ccccc2CN(C)C)nc2ccccc12`, for which the AC50 is 10 µM [rising, partial curve]. In the case of `CCC[C@@H]1C[C@@]1(CCC)C(NS(=O)(=O)c1cccc2cccnc12)c1ccc(Cl)cc1` (some centres undefined), the AC50 is 0.794 µM [rising, partial curve, poor fit].

In the case of `O=C(/C=C\C=C/c1ccc2c(c1)OCO2)N1CCCCC1`, the AC50 was 7.94 µM [rising, partial curve]. As for `Cc1cccc(CNc2ccnc(-c3ccccc3CN(C)C)n2)c1`, the AC50 was 12.6 µM [rising, partial curve]. `FC(F)(F)c1ccccc1-c1ccc2ncnc(NCc3cccs3)c2c1`: the concentration at half-maximal activity (AC50) was 7.94 µM [rising, partial curve]. Then `CS(=O)(=O)N1CCC2(CCCN(C(=O)Nc3cccc(C#N)c3)C2)CC1`, with 0.501 µM [rising, single point]; and `COc1ccc(CNc2cc(-c3ccccc3Cl)ncn2)c(OC)c1`, with 12.6 µM [rising, single point]. Then `CC(C)c1cccc2c([Si](C)(C)C)c3c(nc12)-c1cccc(=O)n1C3`, with 15.8 µM [rising, single point]. On to `CCCC/C=C/C(NC(=O)c1ccc(C(=O)OC)cc1)c1ccccc1` (centres undefined), for which the AC50 is 10 µM [rising, single point]. With `CCCOc1cc(N)ccc1C(=O)OCCN(CC)CC`, the AC50 was 6.31 µM [rising, partial curve, poor fit]. The value for `CCCC[C@@H]1C[C@H]1C(NC(=O)Cc1ccccc1)c1ccc(Cl)cc1` (some centres undefined) was 10 µM [rising, partial curve]; that for `O[C@@](CCN1CCCC1)(c1ccccc1)C1CCCCC1` was 10 µM [rising, single point].

As to `COC(=O)[C@@]1(Cc2ccc(F)cc2)[C@H]2c3cc(C(=O)N4CCCC4)n(Cc4ccc(Cl)c(C(F)(F)F)c4)c3C[C@H]2CN1C(=O)c1ccccc1`, the concentration at half-maximal activity (AC50) is 12.6 µM [rising, single point]. As to `CCCCOc1cc(C(=O)OCCN(CC)CC)ccc1N`, the AC50 was 1 µM [rising, partial curve, poor fit].

In the case of `CCC/C=C(\CCC)C(NC(=O)c1ccco1)c1ccc(C(=O)OC)cc1` (centres undefined), the AC50 was 10 µM [rising, single point]. Then `COC(=O)[C@@]1(Cc2ccccc2)[C@H]2c3cc(C(=O)N4CCCC4)n(C)c3C[C@H]2CN1C(=O)c1ccccc1`, with 12.6 µM [rising, single point]; and `COc1ccc(C(=O)N2CCC3(CCCN(Cc4ccncc4)C3)CC2)cc1`, with 3.98 µM [rising, single point]; and `COc1ccccc1CN1CC2(CCN(C(=O)c3cc(C(F)(F)F)cc(C(F)(F)F)c3)CC2)C1`, with 10 µM [rising, single point]. With `CC(CCC(=O)O)(c1cc(Br)c(O)c(Br)c1)c1cc(Br)c(O)c(Br)c1`, the AC50 was 3.98 µM [rising, single point]. The value for `C[C@H](C(=O)O)c1cccc(Oc2ccccc2)c1` was 7.94 µM [rising, single point]. The value for `N#Cc1cccc(NC(=O)N2CCCC3(CCN(S(=O)(=O)c4ccccc4)CC3)C2)c1` was 0.631 µM [rising, single point]; that for `CCCC[C@@H]1C[C@H]1C(NC(=O)c1ccccc1)c1ccc(C(=O)OC)cc1` (some centres undefined) was 6.31 µM [rising, partial curve]; that for `C[C@@H](C(=O)O)c1ccc(-c2ccccc2)c(F)c1` was 3.98 µM [rising, partial curve] and 3.98 µM [rising, full curve]. As for `C[C@@H](CN(C)C)CN1c2ccccc2CCc2ccccc21`, the AC50 was 5.01 µM [rising, partial curve, poor fit].

These data come from PubChem BioAssay (NCATS).
